In the experiment the target is myc-tagged BioID2 fusion protein containing the C-terminus of PC1 (BioID2-CT1). Put plainly: proximity labelling; myc-BioID2-CT1 transfected, 50 uM biotin overnight, lysate on streptavidin Dynabeads 4 hours, immunoblot with ARHGAP antibodies (called BioID2 proximity ligation assay by the paper).

Results are given in words; binding and its absence hold for the method and conditions named. In cells and extracts the contact can be indirect. A yes stands for co-enrichment or nearness to the bait. Other partners may have been found.

B1: endogenous ARHGAP35 (protein, UniProt Q9NRY4 1-1499)
chain: MMMARKQDVRIPTYNISVVGLSGTEKEKGQCGIGKSCLCNRFVRPSADEFHLDHTSVLSTSDFGGRVVNNDHFLYWGEVSRSLEDCVECKMHIVEQTEFIDDQTFQPHRSTALQPYIKRAAATKLASAEKLMYFCTDQLGLEQDFEQKQMPDGKLLVDGFLLGIDVSRGMNRNFDDQLKFVSNLYNQLAKTKKPIVVVLTKCDEGVERYIRDAHTFALSKKNLQVVETSARSNVNVDLAFSTLVQLIDKSRGKTKIIPYFEALKQQSQQIATAKDKYEWLVSRIVKNHNENWLSVSRKMQASPEYQDYVYLEGTQKAKKLFLQHIHRLKHEHIERRRKLYLAALPLAFEALIPNLDEIDHLSCIKAKKLLETKPEFLKWFVVLEETPWDATSHIDNMENERIPFDLMDTVPAEQLYEAHLEKLRNERKRVEMRRAFKENLETSPFITPGKPWEEARSFIMNEDFYQWLEESVYMDIYGKHQKQIIDKAKEEFQELLLEYSELFYELELDAKPSKEKMGVIQDVLGEEQRFKALQKLQAERDALILKHIHFVYHPTKETCPSCPACVDAKIEHLISSRFIRPSDRNQKNSLSDPNIDRINLVILGKDGLARELANEIRALCTNDDKYVIDGKMYELSLRPIEGNVRLPVNSFQTPTFQPHGCLCLYNSKESLSYVVESIEKSRESTLGRRDNHLVHLPLTLILVNKRGDTSGETLHSLIQQGQQIASKLQCVFLDPASAGIGYGRNINEKQISQVLKGLLDSKRNLNLVSSTASIKDLADVDLRIVMCLMCGDPFSADDILFPVLQSQTCKSSHCGSNNSVLLELPIGLHKKRIELSVLSYHSSFSIRKSRLVHGYIVFYSAKRKASLAMLRAFLCEVQDIIPIQLVALTDGAVDVLDNDLSREQLTEGEEIAQEIDGRFTSIPCSQPQHKLEIFHPFFKDVVEKKNIIEATHMYDNAAEACSTTEEVFNSPRAGSPLCNSNLQDSEEDIEPSYSLFREDTSLPSLSKDHSKLSMELEGNDGLSFIMSNFESKLNNKVPPPVKPKPPVHFEITKGDLSYLDQGHRDGQRKSVSSSPWLPQDGFDPSDYAEPMDAVVKPRNEEENIYSVPHDSTQGKIITIRNINKAQSNGSGNGSDSEMDTSSLERGRKVSIVSKPVLYRTRCTRLGRFASYRTSFSVGSDDELGPIRKKEEDQASQGYKGDNAVIPYETDEDPRRRNILRSLRRNTKKPKPKPRPSITKATWESNYFGVPLTTVVTPEKPIPIFIERCIEYIEATGLSTEGIYRVSGNKSEMESLQRQFDQDHNLDLAEKDFTVNTVAGAMKSFFSELPDPLVPYNMQIDLVEAHKINDREQKLHALKEVLKKFPKENHEVFKYVISHLNKVSHNNKVNLMTSENLSICFWPTLMRPDFSTMDALTATRTYQTIIELFIQQCPFFFYNRPITEPPGARPSSPSAVASTVPFLTSTPVTSQPSPPQSPPPTPQSPMQPLLPSQLQAEHTL
Take B1: the binding result is given as “binds”.

These data come from paper PMC7455122.
